Reference: article PMC4666613
Results are given in words; binding and its absence hold for the method and conditions named. Binding seen in cells or lysates may run through a third protein. Some entries that bind do so weakly or less than the wild type. Where a sequence is shown, tags or fusion partners need not be part of it.

The chains behind the UniProt entries cited, without tags or fusion partners.
UniProt P10243: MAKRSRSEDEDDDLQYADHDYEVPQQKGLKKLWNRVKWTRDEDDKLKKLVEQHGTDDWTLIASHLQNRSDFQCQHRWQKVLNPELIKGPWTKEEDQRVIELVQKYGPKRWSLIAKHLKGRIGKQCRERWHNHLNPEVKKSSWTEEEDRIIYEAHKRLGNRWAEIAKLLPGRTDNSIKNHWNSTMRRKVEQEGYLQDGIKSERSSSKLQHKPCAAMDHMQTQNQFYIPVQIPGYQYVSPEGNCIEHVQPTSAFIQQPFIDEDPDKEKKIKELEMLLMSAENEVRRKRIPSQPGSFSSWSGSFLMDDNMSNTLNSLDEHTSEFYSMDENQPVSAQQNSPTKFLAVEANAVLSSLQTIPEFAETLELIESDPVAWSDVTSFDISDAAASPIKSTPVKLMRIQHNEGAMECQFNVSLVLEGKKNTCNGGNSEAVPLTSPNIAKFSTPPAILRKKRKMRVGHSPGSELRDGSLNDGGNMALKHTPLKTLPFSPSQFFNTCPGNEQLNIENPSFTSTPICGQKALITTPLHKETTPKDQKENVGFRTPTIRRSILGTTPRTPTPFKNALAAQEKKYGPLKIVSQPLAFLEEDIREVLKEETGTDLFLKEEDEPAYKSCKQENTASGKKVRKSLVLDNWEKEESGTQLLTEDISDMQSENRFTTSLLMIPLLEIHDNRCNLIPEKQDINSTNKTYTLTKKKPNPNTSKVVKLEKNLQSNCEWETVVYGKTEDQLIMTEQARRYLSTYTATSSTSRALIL

Target: FLAG-tagged A-MYB (UniProt P10243)
Test: co-IP; FLAG-tagged A-MYB and GFP-tagged TRIM33 co-expressed in HEK293T cells; Nuclear Complex Co-IP Kit (Active Motif); lysates immunoprecipitated with anti-FLAG beads or anti-IgG beads as control; Western blot with anti-GFP and anti-FLAG

- binding: binds
B1: GFP-tagged TRIM33 (protein, UniProt Q9UPN9 1-1127)
chain: MAENKGGGEAESGGGGSGSAPVTAGAAGPAAQEAEPPLTAVLVEEEEEEGGRAGAEGGAAGPDDGGVAAASSGSAQAASSPAASVGTGVAGGAVSTPAPAPASAPAPGPSAGPPPGPPASLLDTCAVCQQSLQSRREAEPKLLPCLHSFCLRCLPEPERQLSVPIPGGSNGDIQQVGVIRCPVCRQECRQIDLVDNYFVKDTSEAPSSSDEKSEQVCTSCEDNASAVGFCVECGEWLCKTCIEAHQRVKFTKDHLIRKKEDVSESVGASGQRPVFCPVHKQEQLKLFCETCDRLTCRDCQLLEHKEHRYQFLEEAFQNQKGAIENLLAKLLEKKNYVHFAATQVQNRIKEVNETNKRVEQEIKVAIFTLINEINKKGKSLLQQLENVTKERQMKLLQQQNDITGLSRQVKHVMNFTNWAIASGSSTALLYSKRLITFQLRHILKARCDPVPAANGAIRFHCDPTFWAKNVVNLGNLVIESKPAPGYTPNVVVGQVPPGTNHISKTPGQINLAQLRLQHMQQQVYAQKHQQLQQMRMQQPPAPVPTTTTTTQQHPRQAAPQMLQQQPPRLISVQTMQRGNMNCGAFQAHQMRLAQNAARIPGIPRHSGPQYSMMQPHLQRQHSNPGHAGPFPVVSVHNTTINPTSPTTATMANANRGPTSPSVTAIELIPSVTNPENLPSLPDIPPIQLEDAGSSSLDNLLSRYISGSHLPPQPTSTMNPSPGPSALSPGSSGLSNSHTPVRPPSTSSTGSRGSCGSSGRTAEKTSLSFKSDQVKVKQEPGTEDEICSFSGGVKQEKTEDGRRSACMLSSPESSLTPPLSTNLHLESELDALASLENHVKIEPADMNESCKQSGLSSLVNGKSPIRSLMHRSARIGGDGNNKDDDPNEDWCAVCQNGGDLLCCEKCPKVFHLTCHVPTLLSFPSGDWICTFCRDIGKPEVEYDCDNLQHSKKGKTAQGLSPVDQRKCERLLLYLYCHELSIEFQEPVPASIPNYYKIIKKPMDLSTVKKKLQKKHSQHYQIPDDFVADVRLIFKNCERFNEMMKVVQVYADTQEINLKADSEVAQAGKAVALYFEDKLTEIYSDRTFAPLPEFEQEEDDGEVTEDSDEDFIQPRRKRLKSDERPVHIK
